These are yes or no findings as the source states them, for the method shown. In cells and extracts the contact can be indirect. Some results given as binding are weak or reduced against the parent protein; the word gives no strength. For some assays here: Where a sequence is shown, tags or fusion partners need not be part of it.
Columns and labels:
[1] = target: T1, endogenous IRF3 (mouse peritoneal macrophages) (mouse (endogenous in peritoneal macrophages)) (UniProt P70671); experiment: co-IP; endogenous proteins in mouse peritoneal macrophages, infected with RSV for different times; precipitating antibody not stated
T1 sequence: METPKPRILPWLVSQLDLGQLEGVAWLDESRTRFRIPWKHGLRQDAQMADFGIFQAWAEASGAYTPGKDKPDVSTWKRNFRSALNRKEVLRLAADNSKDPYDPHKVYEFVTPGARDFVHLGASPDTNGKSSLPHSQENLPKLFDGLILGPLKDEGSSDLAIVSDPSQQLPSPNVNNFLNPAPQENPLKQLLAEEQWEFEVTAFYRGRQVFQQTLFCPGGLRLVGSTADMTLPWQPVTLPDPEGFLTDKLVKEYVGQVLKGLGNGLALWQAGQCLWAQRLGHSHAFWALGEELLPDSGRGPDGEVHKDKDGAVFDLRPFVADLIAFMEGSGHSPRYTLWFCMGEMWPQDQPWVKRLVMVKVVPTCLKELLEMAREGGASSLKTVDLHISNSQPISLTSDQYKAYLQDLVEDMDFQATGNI

[2] = target: T2, Myc-WT-RNF149 (E3 ubiquitin ligase RING finger protein 149) (UniProt Q8NC42); experiment: co-IP; HEK293T cells co-transfected with Myc-RNF149 and Flag-tagged plasmids; immunoprecipitation with an anti-Myc antibody on Protein G-Agarose; NP-40 and high-salt washes
T2 sequence: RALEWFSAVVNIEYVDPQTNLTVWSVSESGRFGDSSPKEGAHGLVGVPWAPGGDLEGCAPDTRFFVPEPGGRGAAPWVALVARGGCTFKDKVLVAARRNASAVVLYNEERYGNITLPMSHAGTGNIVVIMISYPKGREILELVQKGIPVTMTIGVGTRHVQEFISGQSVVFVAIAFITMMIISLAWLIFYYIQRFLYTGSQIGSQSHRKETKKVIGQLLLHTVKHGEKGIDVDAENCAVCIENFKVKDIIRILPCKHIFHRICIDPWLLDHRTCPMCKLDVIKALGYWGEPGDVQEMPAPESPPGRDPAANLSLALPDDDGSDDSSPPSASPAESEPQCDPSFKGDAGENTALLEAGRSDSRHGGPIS

B1: endogenous RNF149 (mouse peritoneal macrophages) (enzyme, UniProt Q3U2C5 32-394)
chain: GALEWYSAMVSIEYVDPQSNLTVWSVSESGRFGESSLREERQGLVGVPRAPAPAEGCAPDTRFVAPGALGNAPWVALVARGGCTFKDKVLAAARRNASAVVVYNLESNGNATEPMSHAGTGNIVVIMISYPKGREIFDLVQKGIPVKMRIEIGTRHMQEFISGQSVVFVAIAFITMMIISLAWLIFYYIQRFLYTGSQFGSQNHRKETKKVIGQLPLHTVKHGEKGIDVDAENCAVCIENFKVKDVIRILPCKHIFHRICIDPWLLDHRTCPMCKLDVIKALGYWGDPEDTQELPTPEAAPGRVSVGNLSVTSQDEERSESNLPSSSSSESGPHRPCLKEDAGEDTALLGAGRSEPQHGGSIC
- binding [1]: binds

B2: Flag-WT-IRF3 (protein, UniProt Q14653 1-427)
chain: MGTPKPRILPWLVSQLDLGQLEGVAWVNKSRTRFRIPWKHGLRQDAQQEDFGIFQAWAEATGAYVPGRDKPDLPTWKRNFRSALNRKEGLRLAEDRSKDPHDPHKIYEFVNSGVGDFSQPDTSPDTNGGGSTSDTQEDILDELLGNMVLAPLPDPGPPSLAVAPEPCPQPLRSPSLDNPTPFPNLGPSENPLKRLLVPGEEWEFEVTAFYRGRQVFQQTISCPEGLRLVGSEVGDRTLPGWPVTLPDPGMSLTDRGVMSYVRHVLSCLGGGLALWRAGQWLWAQRLGHCHTYWAVSEELLPNSGHGPDGEVPKDKEGGVFDLGPFIVDLITFTEGSGRSPRYALWFCVGESWPQDQPWTKRLVMVKVVPTCLRALVEMARVGGASSLENTVDLHISNSHPLSLTSDQYKAYLQDLVEGMDFQGPGES
- binding [2]: binds

Reference: paper PMC12005527
